# PubChem BioAssay AID2685 (National Center for Advancing Translational Sciences (NCATS), 2010)
# Out of some 320,000 compounds screened, about 2,100 (0.66%) were called active. The shares of active, inactive and inconclusive entries below differ from those in the screen. Calls follow the shape of the dose curve; as a rule, active = well fitted inhibition curve with a large enough effect in the signal ratio, with a control signal flat (not every such curve was filed as active); inconclusive = small, poorly fitted or top-dose-only effect, or effect the other way, or a change in a side signal; inactive = flat fitted curve, though single readings scatter; the % refers to the signal ratio. Where the call is inconclusive, the potency comes from a doubtful curve fit.
# Assay: qHTS Assay for Lipid Storage Modulators in Drosophila S3 Cells
# Conditions: BODIPY lipid droplet fluorescence, 18-24 h, cells fed with added oleic acid; lipid storage change, negative = inhibition: at 46.1 µM (top of the series) unless noted
# Method in brief: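 Drosophila S3 cells got compounds at several concentrations plus oleic acid (400 uM solution). Laser-scanning cytometry with 488 nm excitation read lipid droplets at 500-530 nm and cells at 575-640 nm. Percent activity was relative to 20 uM Triacsin C.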
# % is scaled to controls: 0 for no effect and ±100 for the full control effect; potency is read from the fitted curve at half-maximal effect.
Compound,Potency,outcome,"lipid storage change, negative = inhibition"
CCOc1ccc(CC(=O)N/N=C(\C)c2cccnc2)cc1,"inconclusive: 0.58 µM [falling, single point]",,
Cc1ccc(-c2nc(C#N)c(NCCN3CCCCC3)o2)cc1,,inactive [at 46.1 µM],
COc1ccc(S(=O)(=O)N2CCCC(C(=O)Nc3ccc(OC)c(OC)c3)C2)cc1 (configuration not stated),"inconclusive: 16.4 µM [activator, partial curve]",,
Nc1nc2sc3c(c2cc1C(=O)N1CCOCC1)CCCC3,"inconclusive: 0.0046 µM [falling, full curve, poor fit]",,
CCCCNCCCCOc1ccccc1,"inconclusive: 0.092 µM [falling, partial curve, poor fit]",,
COc1ccc(Nc2nc(N)nc(CSC(=S)N3CCCCC3C)n2)cc1 (configuration not stated),"inconclusive: 20.6 µM [falling, partial curve]",,
CCOC(=O)N1CCN(C(=O)CSc2nnc(-c3ccccc3OC)o2)CC1,"inconclusive: 29.1 µM [activator, single point]",,
COC(=O)[C@@H](NC(=O)O[C@@H]1C(=O)c2ccc(OC)cc2O[C@H]1c1cccc(C(F)(F)F)c1)C(C)C,"inconclusive: 5.8 µM [activator, partial curve]",,
COc1cccc(CNC(=O)CN(C)S(=O)(=O)c2ccc(Br)s2)c1,"inconclusive: 29.1 µM [activator, single point]",,
CC(=O)N1CCOc2ccc(S(=O)(=O)NCCc3ccc(S(N)(=O)=O)cc3)cc21,"inconclusive: 29.1 µM [activator, single point]",,
c1ccc2c(c1)nc(NCC1CCCO1)c1nnnn12 (configuration not stated),,,inconclusive: 7.41%
O=c1[nH]c2ccccc2c2cn(-c3ccccc3)nc12,,,inconclusive: -100%
COC(=O)c1ccc(C)c(NC(=O)CCc2ccc(OC)c(OC)c2)c1,,,inconclusive: 0.421%
CC1CCCCC1NC1=NCCS1 (configuration not stated),"inconclusive: 0.013 µM [falling, full curve, poor fit]",,
CNc1ccccc1NC(=O)CCn1c(=S)oc2ccccc21,"inconclusive: 2.91 µM [activator, partial curve]",,
CC1CCCCN1c1ncnc2ccccc12 (configuration not stated),,,inconclusive: 166%
Cn1c(SCC(=O)N2CCOCC2)nnc1-c1cccc(NC(=O)c2ccccc2F)c1,,,inconclusive: -8.26%
CCOc1ccc(S(=O)(=O)N(C)CC(=O)NCc2ccc3c(c2)OCO3)cc1,"inconclusive: 0.0046 µM [falling, full curve, poor fit]",,
Cc1c(C(=O)NN2CCN(C)CC2)cccc1[N+](=O)[O-],,,inconclusive: 14.8%
Cc1cc(C)nc(/N=C2\NC(=O)CC(C(=O)O)N2c2cccc(Cl)c2)n1 (configuration not stated),,,inconclusive: -7.23%
Cc1c(C(=O)N/N=C/c2ccc(N(C)C)cc2)[nH]c2ccc(Cl)cc12,"inconclusive: 0.82 µM [activator, single point]",,
CCOc1ccccc1NC(=O)CN(C)S(=O)(=O)c1cnc[nH]1,,,inconclusive: -3.63%
COc1ccc(/C=C/C(=O)Nc2cc(C)nn2-c2nc3ccccc3[nH]2)cc1,,,inconclusive: -29.9%
CC1CCN(C(=O)C(C)NCc2ccc(F)cc2)CC1 (configuration not stated),,,inconclusive: 82.7%

Compound,Potency,outcome,"lipid storage change, negative = inhibition"
CCOC(=O)c1sc(=S)n(Cc2ccccc2)c1C,,,inconclusive: -0.905%
CCN1CCN(C(=O)c2ccc(S(=O)(=O)Nc3ccccc3)cc2)CC1,"inconclusive: 0.0046 µM [falling, full curve, poor fit]",,
CC1CCC(NC(=O)C(C)N2C(=O)C3CCCCC3C2=O)CC1 (configuration not stated),"inconclusive: 0.58 µM [falling, single point]",,
N/C(=N\OC(=O)COc1ccc(Br)cc1Cl)c1cccnc1,"inconclusive: 4.11 µM [activator, full curve]",,
CCCC12CN3CC(CCC)(CN(C1)C3C(O)C(O)C(O)CO)C2=O (configuration not stated),,,inconclusive: 115%
Cc1c(NC(=S)N2CCN(c3cccc(Cl)c3)CC2)c(=O)n(-c2ccccc2)n1C,,,inconclusive: 15.6%
Cc1ccc(NC(=S)Nc2ccc(OC(F)F)c(Cl)c2)cc1Cl,"inconclusive: 29.1 µM [cytotoxic, single point]",,
COc1ccc(C(=O)CSc2nnc(-c3cc4ccccc4cc3O)n2Cc2ccco2)cc1,"inconclusive: 29.1 µM [falling, single point]",,
Cc1ccccc1-c1nc2c(s1)CCc1onc(-c3cccc([N+](=O)[O-])c3)c1-2,,,inconclusive: 26.4%
Cc1cc(C)n(-c2nc3c(c(=O)[nH]c(=O)n3C)n2CC(C)C)n1,,,inconclusive: -141%
N#CC1=C(N)Oc2cc(N)ccc2C1C1CCCCC1 (configuration not stated),"inconclusive: 29.1 µM [falling, single point]",,
O=C1Nc2ccc(Br)cc2C12NNc1ccccc1O2 (configuration not stated),active: 23.1 µM,,
NC(=O)CC(NC(=O)Cc1ccc(Cl)cc1)c1ccc(NCC2CC2)c([N+](=O)[O-])c1 (configuration not stated),,,inconclusive: 18.4%
CN(C)/C=C1\SC(=S)N(N2C(=O)C3C4C=CC(C4)C3C2=O)C1=O (configuration not stated),"inconclusive: 0.206 µM [falling, full curve, poor fit]",,
Oc1ccc(C2=NNC(c3ccc(O)cc3)=NN2)cc1,,,inconclusive: 4.17%
O=C(O)CCCC(=O)NNC(=O)c1cccc(Br)c1,,,inconclusive: -20.6%
CCOC(=O)c1c(NC(=O)C(C)OC(=O)C2=COCCO2)sc2c1CCCC2 (configuration not stated),,,inconclusive: -61.6%
O=C(OCCN1CCCCC1)c1cccc(F)c1,"inconclusive: 16.4 µM [falling, partial curve]",,
CCOC(=O)C(=O)NC12CC3CC(CC(C3)C1)C2,,,inconclusive: -21.6%
CCN(CC)S(=O)(=O)c1cc(C(=O)c2nccn2C)ccc1Cl,"inconclusive: 0.461 µM [falling, full curve]",,
Cc1ccc(C(=O)NCC(=O)N2CCCCCCC2)cc1C,"inconclusive: 2.31 µM [falling, full curve]",,
CCn1cc(S(=O)(=O)NCc2ccccc2Br)cn1,"inconclusive: 29.1 µM [falling, single point]",,
Cc1ccc(-n2nc(C)c(/C=N/NC(=O)c3cccnc3)c2Cl)cc1,,,inconclusive: -47.6%

# 3 entries from above, with bars between the fields.
Compound | Potency | outcome | lipid storage change, negative = inhibition
Cc1c(NC(=S)N2CCN(c3cccc(Cl)c3)CC2)c(=O)n(-c2ccccc2)n1C |  |  | inconclusive: 15.6%
Cc1ccc(NC(=S)Nc2ccc(OC(F)F)c(Cl)c2)cc1Cl | inconclusive: 29.1 µM [cytotoxic, single point] |  | 
COc1ccc(C(=O)CSc2nnc(-c3cc4ccccc4cc3O)n2Cc2ccco2)cc1 | inconclusive: 29.1 µM [falling, single point] |  | 
